In patent US20220033516A1:
Results are given in words; binding and its absence hold for the method and conditions named.

These binders were tested against recombinant human wild-type HER2 ECD with twin Strep tag (human) (UniProt P04626) (assay: SPR, Biacore 8K, 37 C, antibody captured by anti-human Fc, antigen 25-400 nM).

binding	Binder
no binding (tested: 400 nM)	MHR0019/CD3 (bispecific antibody, human IgG1, kappa, N297A) heavy 1: QSVEESGGRLVAPGTPLTLTCTVSGIDLSSDAMAWVRQAPGKGLEYIGIISSSGSTYYASWAKGRFTISKTSTTVDLKITSPTTEDTATYFCARGVDIYGHAYATPYGMDLWGPGTLVTVSSASTKGPSVFPLAPSSRSTSESTAALGCLVKDYFPEPVTVSWNSGALTSGVHTFPAVLQSSGLYSLSSVVTVPSSSLGTKTYTCNVDHKPSNTKVDKRVEPKSCDKTHTCPPCPAPELRRGPKVFLFPPKPKDTLMISRTPEVTCVVVDVSQEDPEVQFNWYVDGVEVHNAKTKPREEQFASTYRVVSVLTVLHQDWLNGKEYKCKVSNKGLPSSIEKTISKAKGQPREPQVYTLPPSREEMTKNQVSLTCLVKGFYPSDIAVEWESNGQPENNYKTTPPYLDSDGSFFLYSKLTVDKSRWQEGNVFSCSVMHEALHNHYTQESLSLSP light 1: EVVMTQTPASVSEPVGGTVTIKCQASQSISSYLSWYQQKPGQPPKLLIYYASTLASGVPSRFKGSGSGTEFTLTISDLECDDAATYYCQSNYGSSSSSYEDTFGGGTKVEIKRTVAAPSVFIFPPSDEQLKSGTASVVCLLNNFYPREAKVQWKVDNALQSGNSQESVTEQDSKDCTYSLSSTLTLSKADYEKHKVYACEVTHQGLSSPVTKSFNRGEC heavy 2: QVQLVESGGGVVQPGGSLRLSCAASGFTFSNAWMHWVRQAPGKGLEWVAQIKDKSQNYATYVAESVKGRFTISRADSKNSIYLQMNSLKTEDTAVYYCRYVHYAAGYGVDIWGQGTTVTVSSASTKGPSVFPLAPSSRSTSESTAALGCLVKDYFPEPVTVSWNSGALTSGVHTFPAVLQSSGLYSLSSVVTVPSSSLGTKTYTCNVDHKPSNTKVDKRVEPKSCDKTHTCPPCPAPELRRGPKVFLFPPKPKDTLMISRTPEVTCVVVDVSQEDPEVQFNWYVDGVEVHNAKTKPREEQFASTYRVVSVLTVLHQDWLNGKEYKCKVSNKGLPSSIEKTISKAKGQPREPQVYTLPPSRKEMTKNQVSLTCLVKGFYPSDIAVEWESNGQPENNYKTTPPYLDSDGSFFLYSKLTVDKSRWQEGNVFSCSVMHEALHNHYTQKSLSLSP light 2: DIVMTQSPLSLPVTPGEPASISCRSSQPLVHSNRNTYLHWYQQKPGQAPRLLIYKVSNRFSGVPDRFSGSGSGTDFTLKISRVEAEDVGVYYCGQGTQVPYTFGQGTKLEIKRTVAAPSVFIFPPSDEQLKSGTASVVCLLNNFYPREAKVQWKVDNALQSGNSQESVTEQDSKDSTYSLSSTLTLSKADYEKHKVYACEVTHQGLSSPVTKSFNRGEC
no binding (tested: 400 nM)	MHR0016/CD3 (bispecific antibody, human IgG1, kappa, N297A) heavy 1: QSVEESGGRLVTPGTPLTLTCTVSGFSLSSNAISWVRQAPGKGLEYIGIISSSGSTYYANWAKGRFTISKTSSTTVDLKMTSATTEDTATYFCARGVDIYGHAYATPYGMDLWGPGTLVTVSSASTKGPSVFPLAPSSRSTSESTAALGCLVKDYFPEPVTVSWNSGALTSGVHTFPAVLQSSGLYSLSSVVTVPSSSLGTKTYTCNVDHKPSNTKVDKRVEPKSCDKTHTCPPCPAPELRRGPKVFLFPPKPKDTLMISRTPEVTCVVVDVSQEDPEVQFNWYVDGVEVHNAKTKPREEQFASTYRVVSVLTVLHQDWLNGKEYKCKVSNKGLPSSIEKTISKAKGQPREPQVYTLPPSREEMTKNQVSLTCLVKGFYPSDIAVEWESNGQPENNYKTTPPYLDSDGSFFLYSKLTVDKSRWQEGNVFSCSVMHEALHNHYTQESLSLSP light 1: EVVMTQTPASVSEPVGGTVTIKCQASQSISSYLSWYQQKPGQPPKLLIYYSSTLASGVPSRFKGSGSGTEFTLTISDLECADAATYYCQSNYGSSSSSYEDTFGGGTKVEIKRTVAAPSVFIFPPSDEQLKSGTASVVCLLNNFYPREAKVQWKVDNALQSGNSQESVTEQDSKDCTYSLSSTLTLSKADYEKHKVYACEVTHQGLSSPVTKSFNRGEC heavy 2: QVQLVESGGGVVQPGGSLRLSCAASGFTFSNAWMHWVRQAPGKGLEWVAQIKDKSQNYATYVAESVKGRFTISRADSKNSIYLQMNSLKTEDTAVYYCRYVHYAAGYGVDIWGQGTTVTVSSASTKGPSVFPLAPSSRSTSESTAALGCLVKDYFPEPVTVSWNSGALTSGVHTFPAVLQSSGLYSLSSVVTVPSSSLGTKTYTCNVDHKPSNTKVDKRVEPKSCDKTHTCPPCPAPELRRGPKVFLFPPKPKDTLMISRTPEVTCVVVDVSQEDPEVQFNWYVDGVEVHNAKTKPREEQFASTYRVVSVLTVLHQDWLNGKEYKCKVSNKGLPSSIEKTISKAKGQPREPQVYTLPPSRKEMTKNQVSLTCLVKGFYPSDIAVEWESNGQPENNYKTTPPYLDSDGSFFLYSKLTVDKSRWQEGNVFSCSVMHEALHNHYTQKSLSLSP light 2: DIVMTQSPLSLPVTPGEPASISCRSSQPLVHSNRNTYLHWYQQKPGQAPRLLIYKVSNRFSGVPDRFSGSGSGTDFTLKISRVEAEDVGVYYCGQGTQVPYTFGQGTKLEIKRTVAAPSVFIFPPSDEQLKSGTASVVCLLNNFYPREAKVQWKVDNALQSGNSQESVTEQDSKDSTYSLSSTLTLSKADYEKHKVYACEVTHQGLSSPVTKSFNRGEC

The remaining lines, values behind:

Binder	binding
MHR0009/CD3 (bispecific antibody, human IgG1, kappa, N297A) heavy 1: QSLEESGGRLVTPGTPLTLTCKASGFSLSSYAMIWVRQAPGKGLESIGMVYIHSGGTYYASWAKGRFTISKTSTTVDLKITSPTTEDTATYFCARYNGGGSGTDLWGPGTLVTVSSASTKGPSVFPLAPSSRSTSESTAALGCLVKDYFPEPVTVSWNSGALTSGVHTFPAVLQSSGLYSLSSVVTVPSSSLGTKTYTCNVDHKPSNTKVDKRVEPKSCDKTHTCPPCPAPELRRGPKVFLFPPKPKDTLMISRTPEVTCVVVDVSQEDPEVQFNWYVDGVEVHNAKTKPREEQFASTYRVVSVLTVLHQDWLNGKEYKCKVSNKGLPSSIEKTISKAKGQPREPQVYTLPPSREEMTKNQVSLTCLVKGFYPSDIAVEWESNGQPENNYKTTPPYLDSDGSFFLYSKLTVDKSRWQEGNVFSCSVMHEALHNHYTQESLSLSP light 1: DIVMTQTPSSVSEPVGGTVTIKCQASQSIYSYLSWYQQKPGQRPKLLIYYASTLASGVPSRFKGSGSGTQFTLTISDLECADAATYYCQNNYGSDSNIYGIAFGGGTKVEIKRTVAAPSVFIFPPSDEQLKSGTASVVCLLNNFYPREAKVQWKVDNALQSGNSQESVTEQDSKDCTYSLSSTLTLSKADYEKHKVYACEVTHQGLSSPVTKSFNRGEC heavy 2: QVQLVESGGGVVQPGGSLRLSCAASGFTFSNAWMHWVRQAPGKGLEWVAQIKDKSQNYATYVAESVKGRFTISRADSKNSIYLQMNSLKTEDTAVYYCRYVHYAAGYGVDIWGQGTTVTVSSASTKGPSVFPLAPSSRSTSESTAALGCLVKDYFPEPVTVSWNSGALTSGVHTFPAVLQSSGLYSLSSVVTVPSSSLGTKTYTCNVDHKPSNTKVDKRVEPKSCDKTHTCPPCPAPELRRGPKVFLFPPKPKDTLMISRTPEVTCVVVDVSQEDPEVQFNWYVDGVEVHNAKTKPREEQFASTYRVVSVLTVLHQDWLNGKEYKCKVSNKGLPSSIEKTISKAKGQPREPQVYTLPPSRKEMTKNQVSLTCLVKGFYPSDIAVEWESNGQPENNYKTTPPYLDSDGSFFLYSKLTVDKSRWQEGNVFSCSVMHEALHNHYTQKSLSLSP light 2: DIVMTQSPLSLPVTPGEPASISCRSSQPLVHSNRNTYLHWYQQKPGQAPRLLIYKVSNRFSGVPDRFSGSGSGTDFTLKISRVEAEDVGVYYCGQGTQVPYTFGQGTKLEIKRTVAAPSVFIFPPSDEQLKSGTASVVCLLNNFYPREAKVQWKVDNALQSGNSQESVTEQDSKDSTYSLSSTLTLSKADYEKHKVYACEVTHQGLSSPVTKSFNRGEC	no binding (tested: 400 nM)
MHR0010/CD3 (bispecific antibody, human IgG1, kappa, N297A) heavy 1: QSVEESGGRLVTPGTPLTLTCTVSGFSLSRYAMSWVRQAPGKGLEWIGIIVSSSGSTYYATWATGRFTISKTSTTVDLKITSPTTEDTATYFCARIRGYDNIGYGYPWFYYFNLWGPGTLVTVSSASTKGPSVFPLAPSSRSTSESTAALGCLVKDYFPEPVTVSWNSGALTSGVHTFPAVLQSSGLYSLSSVVTVPSSSLGTKTYTCNVDHKPSNTKVDKRVEPKSCDKTHTCPPCPAPELRRGPKVFLFPPKPKDTLMISRTPEVTCVVVDVSQEDPEVQFNWYVDGVEVHNAKTKPREEQFASTYRVVSVLTVLHQDWLNGKEYKCKVSNKGLPSSIEKTISKAKGQPREPQVYTLPPSREEMTKNQVSLTCLVKGFYPSDIAVEWESNGQPENNYKTTPPYLDSDGSFFLYSKLTVDKSRWQEGNVFSCSVMHEALHNHYTQESLSLSP light 1: DVVMTQTPASVEAAVGGTVTIKCQASQSISSYLAWYQQKPGQPPKLLIYDASDLASGVPSRFKGSGSGTQFTLTISDLECADAATYYCQSYYYSSSSSYGFAFGGGTKVEIKRTVAAPSVFIFPPSDEQLKSGTASVVCLLNNFYPREAKVQWKVDNALQSGNSQESVTEQDSKDCTYSLSSTLTLSKADYEKHKVYACEVTHQGLSSPVTKSFNRGEC heavy 2: QVQLVESGGGVVQPGGSLRLSCAASGFTFSNAWMHWVRQAPGKGLEWVAQIKDKSQNYATYVAESVKGRFTISRADSKNSIYLQMNSLKTEDTAVYYCRYVHYAAGYGVDIWGQGTTVTVSSASTKGPSVFPLAPSSRSTSESTAALGCLVKDYFPEPVTVSWNSGALTSGVHTFPAVLQSSGLYSLSSVVTVPSSSLGTKTYTCNVDHKPSNTKVDKRVEPKSCDKTHTCPPCPAPELRRGPKVFLFPPKPKDTLMISRTPEVTCVVVDVSQEDPEVQFNWYVDGVEVHNAKTKPREEQFASTYRVVSVLTVLHQDWLNGKEYKCKVSNKGLPSSIEKTISKAKGQPREPQVYTLPPSRKEMTKNQVSLTCLVKGFYPSDIAVEWESNGQPENNYKTTPPYLDSDGSFFLYSKLTVDKSRWQEGNVFSCSVMHEALHNHYTQKSLSLSP light 2: DIVMTQSPLSLPVTPGEPASISCRSSQPLVHSNRNTYLHWYQQKPGQAPRLLIYKVSNRFSGVPDRFSGSGSGTDFTLKISRVEAEDVGVYYCGQGTQVPYTFGQGTKLEIKRTVAAPSVFIFPPSDEQLKSGTASVVCLLNNFYPREAKVQWKVDNALQSGNSQESVTEQDSKDSTYSLSSTLTLSKADYEKHKVYACEVTHQGLSSPVTKSFNRGEC	no binding (tested: 400 nM)
